Measurements published in publication PMC7105138, “Modeling cancer genomic data in yeast reveals selection against ATM function during tumorigenesis” (PLoS Genetics, 2020).
Numbering of substitutions follows the chain as printed. Names and notes keep the numbering of the source. These are yes or no findings as the source states them, for the method shown. For some of these results: In cells and extracts the contact can be indirect. Some entries that bind do so weakly or less than the wild type. For some of these results: Where a sequence is shown, tags or fusion partners need not be part of it. Values belong to the binder of their own block, whether it stands above or below them.

Columns and labels:
[1] = target: T1, Mre11 (S. cerevisiae (endogenous in W303)) (UniProt P32829); assay: co-IP; immunoprecipitation from yeast cells with Rad50 or Mre11 antisera, western blot with Rad50 or Mre11 antisera; preimmune antibodies as negative controls
T1 sequence: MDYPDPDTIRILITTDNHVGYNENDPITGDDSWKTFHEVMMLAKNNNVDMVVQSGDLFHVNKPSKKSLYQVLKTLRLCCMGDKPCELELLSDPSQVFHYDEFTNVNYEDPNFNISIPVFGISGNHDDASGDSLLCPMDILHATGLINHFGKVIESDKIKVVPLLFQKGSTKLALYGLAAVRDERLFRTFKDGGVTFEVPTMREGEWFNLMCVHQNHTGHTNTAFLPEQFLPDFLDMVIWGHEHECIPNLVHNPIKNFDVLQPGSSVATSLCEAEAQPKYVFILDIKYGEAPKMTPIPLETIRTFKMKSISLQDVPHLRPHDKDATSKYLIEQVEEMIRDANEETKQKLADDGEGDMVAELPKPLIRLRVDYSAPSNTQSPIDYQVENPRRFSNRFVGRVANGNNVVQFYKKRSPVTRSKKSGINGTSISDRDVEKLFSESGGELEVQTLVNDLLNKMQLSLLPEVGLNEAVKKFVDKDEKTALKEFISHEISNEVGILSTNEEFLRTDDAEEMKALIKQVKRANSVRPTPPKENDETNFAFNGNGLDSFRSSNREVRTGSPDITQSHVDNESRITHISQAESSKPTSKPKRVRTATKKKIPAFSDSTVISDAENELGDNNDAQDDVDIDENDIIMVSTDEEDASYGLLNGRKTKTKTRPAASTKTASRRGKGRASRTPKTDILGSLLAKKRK

[2] = target: T2, Mre11-E38K (S. cerevisiae) (UniProt P32829); assay: as above
T2 sequence: T1 sequence with E38K

[3] = target: T3, Xrs2-FLAG (S. cerevisiae) (UniProt P33301); assay: co-purification on anti-FLAG agarose; Sf9 cells co-infected with baculoviruses for Mre11-his6, Xrs2-FLAG and Rad50 WT or mutant; lysate at 0.5 M NaCl on anti-FLAG M2 agarose overnight at 4°C, washed 10x with 500 mM NaCl, eluted with 3xFLAG peptide in 250 mM NaCl; Coomassie-stained SDS-PAGE
T3 sequence: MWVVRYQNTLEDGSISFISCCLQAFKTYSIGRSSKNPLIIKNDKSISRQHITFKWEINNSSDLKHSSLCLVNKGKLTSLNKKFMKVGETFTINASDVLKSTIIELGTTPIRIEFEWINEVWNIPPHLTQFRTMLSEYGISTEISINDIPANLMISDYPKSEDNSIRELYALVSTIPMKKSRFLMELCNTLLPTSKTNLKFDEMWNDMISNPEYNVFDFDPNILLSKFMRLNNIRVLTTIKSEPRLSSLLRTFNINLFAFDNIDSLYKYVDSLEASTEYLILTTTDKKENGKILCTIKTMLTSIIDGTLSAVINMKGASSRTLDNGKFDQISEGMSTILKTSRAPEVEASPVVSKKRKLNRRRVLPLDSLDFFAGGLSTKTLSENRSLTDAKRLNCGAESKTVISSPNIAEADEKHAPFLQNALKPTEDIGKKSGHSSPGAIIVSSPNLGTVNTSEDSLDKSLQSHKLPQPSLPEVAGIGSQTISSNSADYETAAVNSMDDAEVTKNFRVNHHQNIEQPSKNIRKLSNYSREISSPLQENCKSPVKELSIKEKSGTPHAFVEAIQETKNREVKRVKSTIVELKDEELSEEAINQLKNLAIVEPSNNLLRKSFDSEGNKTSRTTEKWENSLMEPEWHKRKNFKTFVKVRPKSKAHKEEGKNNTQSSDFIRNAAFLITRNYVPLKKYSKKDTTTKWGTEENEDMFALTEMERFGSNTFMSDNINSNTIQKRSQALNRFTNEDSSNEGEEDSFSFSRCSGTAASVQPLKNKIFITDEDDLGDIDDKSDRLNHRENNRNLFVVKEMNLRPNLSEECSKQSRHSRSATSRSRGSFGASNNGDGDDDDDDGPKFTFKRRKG

binding [1]: binds | binding [2]: binds
B1: Rad50 (protein, UniProt P12753 1-1312)
chain: MSAIYKLSIQGIRSFDSNDRETIEFGKPLTLIVGMNGSGKTTIIECLKYATTGDLPPNSKGGVFIHDPKITGEKDIRAQVKLAFTSANGLNMIVTRNIQLLMKKTTTTFKTLEGQLVAINNSGDRSTLSTRSLELDAQVPLYLGVPKAILEYVIFCHQEDSLWPLSEPSNLKKKFDEIFQAMKFTKALDNLKSIKKDMSVDIKLLKQSVEHLKLDKDRSKAMKLNIHQLQTKIDQYNEEVSEIESQLNEITEKSDKLFKSNQDFQKILSKVENLKNTKLSISDQVKRLSNSIDILDLSKPDLQNLLANFSKVLMDKNNQLRDLETDISSLKDRQSSLQSLSNSLIRRQGELEAGKETYEKNRNHLSSLKEAFQHKFQGLSNIENSDMAQVNHEMSQFKAFISQDLTDTIDQFAKDIQLKETNLSDLIKSITVDSQNLEYNKKDRSKLIHDSEELAEKLKSFKSLSTQDSLNHELENLKTYKEKLQSWESENIIPKLNQKIEEKNNEMIILENQIEKFQDRIMKTNQQADLYAKLGLIKKSINTKLDELQKITEKLQNDSRIRQVFPLTQEFQRADLEMDFQKLFINMQKNIAINNKKMHELDRRYTNALYNLNTIEKDLQDNQKSKEKVIQLLSENLPEDCTIDEYNDVLEETELSYKTALENLKMHQTTLEFNRKALEIAERDSCCYLCSRKFENESFKSKLLQELKTKTDANFEKTLKDTVQNEKEYLHSLRLLEKHIITLNSINEKIDNSQKCLEKAKEETKTSKSKLDELEVDSTKLKDEKELAESEIRPLIEKFTYLEKELKDLENSSKTISEELSIYNTSEDGIQTVDELRDQQRKMNDSLRELRKTISDLQMEKDEKVRENSRMINLIKEKELTVSEIESSLTQKQNIDDSIRSKRENINDIDSRVKELEARIISLKNKKDEAQSVLDKVKNERDIQVRNKQKTVADINRLIDRFQTIYNEVVDFEAKGFDELQTTIKELELNKAQMLELKEQLDLKSNEVNEEKRKLADSNNEEKNLKQNLELIELKSQLQHIESEISRLDVQNAEAERDKYQEESLRLRTRFEKLSSENAGKLGEMKQLQNQIDSLTHQLRTDYKDIEKNYHKEWVELQTRSFVTDDIDVYSKALDSAIMKYHGLKMQDINRIIDELWKRTYSGTDIDTIKIRSDEVSSTVKGKSYNYRVVMYKQDVELDMRGRCSAGQKVLASIIIRLALSETFGANCGVIALDEPTTNLDEENIESLAKSLHNIINMRRHQKNFQLIVITHDEKFLGHMNAAAFTDHFFKVKRDDRQKSQIEWVDINRVTY

binding [3]: binds
B2: Rad50 WT (in MRX-WT from insect cells) (protein, UniProt P12753 1-1312)
chain: B1 chain

binding [1]: binds
B3: Rad50-L1240F (protein, UniProt P12753 1-1312)
chain: B1 chain with L1240F

binding [3]: binds
B4: Rad50-D67Y (in MRX-D67Y from insect cells) (protein, UniProt P12753 1-1312)
chain: B1 chain with D67Y

binding [3]: binds
B5: Rad50-D67N (in MRX-D67N from insect cells) (protein, UniProt P12753 1-1312)
chain: B1 chain with D67N

binding [3]: binds
B6: Rad50-L1240F (in MRX-L1240F from insect cells) (protein, UniProt P12753 1-1312)
chain: B1 chain with L1240F
